The assay can be described thus: qHTS Assay for Lipid Storage Modulators in Drosophila S3 Cells.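 For cell number change: cells counted by Cell Tracker Red CMTPX staining in the red channel.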 To be noted: BODIPY lipid droplet fluorescence, 18-24 h; for cell number change: measured here: cell count max response, cells fed with added oleic acid. The procedure, abridged: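 Drosophila S3 cells got compounds at several concentrations plus oleic acid (400 uM solution). Laser-scanning cytometry with 488 nm excitation read lipid droplets at 500-530 nm and cells at 575-640 nm. Percent activity was relative to 20 uM Triacsin C.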
For orientation: qHTS replaces the single test concentration by a dilution series.

Where [1] appears, read: measured here: lipid fluorescence (Fed channel) AC50, cells fed with added oleic acid.
Setting [2] is: measured here: cell number channel AC50, cells fed with added oleic acid.

The other results are listed elsewhere or left out. The main result of the screen is listed elsewhere. These columns were measured beside it and carry no call. Compounds called inactive in the main read-out are mostly missing here. Potencies come from curve fits of mixed quality, noted in brackets.

Usually AC50 stands for the concentration at which the activity in the assay is half-maximal. Lower therefore signals activity at low concentration. As to `COc1ccc(CCNC(=O)C(=O)NCC2OCCN2S(=O)(=O)c2ccc(C)cc2)cc1` (configuration not stated), the cell number change is 10.7%. Also, the AC50 under setting [1] is 6.51 µM [rising, single point].

`O=C(Cn1ccccc1=O)NCc1ccc(F)cc1`: the cell number change is 17.5%. Turning to `CCSc1ncnc2c(C#N)c3n(c12)CCCCC3`, the cell number change was -5.92%. Further, the concentration at half-maximal activity (AC50) under setting [1] is 6.51 µM [rising, single point]. Take `Cc1ccc(N(C(=O)Cn2nnc(-c3ccc(F)cc3)n2)C(CC(C)C)C(=O)NCC2CCCO2)cc1` (configuration not stated): the cell number change was -10.6%.

Turning to `Cc1ccc(-c2ccc(C#N)c(=O)n2CC(=O)N(C)C)cc1`, the cell number change was -14.6%. In addition, under setting [1], the AC50 is 0.82 µM [rising, full curve].

As for `COc1ccc(S(=O)(=O)N(C)C2CCS(=O)(=O)C2)cc1OC` (configuration not stated), the cell number change was determined as 2.97%. Consider `CC(O)C(=O)N/N=C/c1ccccc1C(=O)O` (configuration not stated), for which the cell number change is -15.2%. Also, the AC50 under setting [1] was 0.00517 µM [falling, full curve, poor fit].

In the case of `COc1ccc(/C=C/c2nc3ccccc3n2Cc2ccc(OC)c(OC)c2)cc1`, the cell number change is -41.2%. For the same compound, the concentration at half-maximal activity (AC50) under setting [2] was 0.0058 µM [falling, full curve, poor fit]. `Cc1ccccc1N=C1NC(=O)/C(=C/c2cccn2C)S1`: the cell number change was -8.02%. Further, under setting [1], the AC50 was 6.51 µM [rising, single point]. For `CCC(C)NC(=S)N1CCN(C)CC1` (configuration not stated), the cell number change is 14.7%. The AC50 under setting [2] was 0.92 µM [falling, full curve]. Further, the AC50 under setting [1] was 0.92 µM [falling, full curve]. Regarding `COc1cc(CCC(=O)Nc2ccc(S(=O)(=O)NC3=NCCCCC3)cc2)cc(OC)c1OC`, the cell number change is 39.7%. In addition, the AC50 under setting [2] is 8.2 µM [rising, partial curve, poor fit]. Under setting [1], the AC50 is 8.2 µM [rising, single point]. Regarding `Cc1cccn2c(=O)c(/C=C(\C#N)C(N)=O)c(N3CCN(c4cccc(Cl)c4)CC3)nc12`, the cell number change was 18%. In addition, under setting [1], the AC50 was 29.1 µM [falling, single point]. For the compound `COc1ccc(-n2nnnc2SCC(=O)NC(=O)Nc2ccc3c(c2)OCCO3)cc1`, the cell number change turned out to be 41.5%. For the same compound, the concentration at half-maximal activity (AC50) under setting [1] was 6.51 µM [falling, single point]. As to `COc1ccc(N=Cc2ccc[nH]2)cc1`, the cell number change was determined as 12.4%. For the same compound, the concentration at half-maximal activity (AC50) under setting [1] is 0.231 µM [rising, full curve]. In the case of `CCOC(=O)c1c(C)c(C(=O)NCCN2CCOCC2)c(C)n1CC`, the cell number change is -4.7%. Also, under setting [1], the concentration at half-maximal activity (AC50) is 0.13 µM [falling, full curve, poor fit].

Turning to `CSc1ccccc1-c1nnc(-c2ccc(C)cc2)o1`, the cell number change worked out at 4.89%. Under setting [1], the AC50 was 6.51 µM [falling, single point].

As to `Cc1ccc(NC(=O)c2ccc([N+](=O)[O-])o2)c(C)c1`, the cell number change is -15.1%. Turning to `CC(C)OCCCn1c(=O)c2ccccc2n2c(CCC(=O)NCc3ccccn3)nnc12`, the cell number change is -53.4%. For the same compound, under setting [2], the AC50 was 16.4 µM [falling, single point]. Under setting [1], the AC50 was 0.291 µM [falling, full curve]. For the compound `O=C(NC1CCCC1)C(c1cccnc1)N(C(=O)c1csnn1)c1ccccc1Cl` (configuration not stated), the cell number change was 1.35%. As for `COCCn1c(=NC(=O)c2cc3ccccc3oc2=O)sc2cc(S(N)(=O)=O)ccc21`, the AC50 by setting is: under setting [2], 6.51 µM [rising, single point]; under setting [1], 0.326 µM [rising, full curve, poor fit].

On to `Cc1cc(=O)c2ccccc2n1CC(=O)NCc1ccccc1`, for which the cell number change is -6.43%. For the compound `O=C(Nc1ccc(N2CCCCCC2)cc1)c1ccccc1Cl`, the cell number change was 85.5%. The AC50 under setting [2] was 6.51 µM [falling, single point].

As to `CCOC(=O)C1(Cc2cccc(OC)c2)CCN(Cc2ccon2)CC1`, the cell number change is -0.468%.

As to `S=C(NCCCN1CCOCC1)NCCCN1CCOCC1`, the cell number change was -0.314%. Further, the AC50 under setting [1] is 9.2 µM [falling, partial curve].

For `Cc1ccc(-c2onc(C)c2C)cc1S(=O)(=O)N1CC(C)Oc2ccccc21` (configuration not stated), the cell number change is -46.5%. Moreover, under setting [2], the AC50 is 2.06 µM [falling, full curve]. Also, under setting [1], the AC50 was 20.6 µM [falling, partial curve]. For `Cc1csc(N(C)C(=O)CSc2nnc(COc3cccc4ccccc34)o2)n1`, the cell number change is -26.5%.

With `Cc1ccc(N(CC(N)=O)C2SC(=O)N(Cc3cccc(C(=O)O)c3)C2=O)cc1` (configuration not stated), the cell number change is -3.57%. `O=C(O)CCCn1cc(NC(=O)c2ccc(Br)o2)cn1`: the cell number change was -13.6%. Also, the AC50 under setting [2] was 1.12 µM [falling, full curve, poor fit]. The AC50 under setting [1] was 3.55 µM [falling, partial curve]. Turning to `O=C(CSc1nc2scc(-c3ccccc3)c2c(=O)[nH]1)Nc1ccccc1`, the cell number change was -25.4%. `COc1ccc(OC)c(Nc2nnc(C)c(=O)[nH]2)c1`: the AC50 under setting [2] is 0.58 µM [rising, single point] and the AC50 under setting [1] is 29.1 µM [rising, single point].

`Cc1oc(-c2ccccc2Cl)nc1CS(=O)(=O)CC(=O)NC1CCCC1`: the cell number change is 4.9%. Besides, the AC50 under setting [1] was 20.6 µM [falling, single point]. `O=[N+]([O-])c1cc(S(=O)(=O)N2CCCC2)ccc1N/N=C/c1ccncc1`: the cell number change is -16.8%. Also, the half-maximal activity concentration (AC50) under setting [1] was 1.84 µM [falling, partial curve, poor fit].

On to `CCNc1ccc([N+](=O)[O-])cc1`, for which the cell number change is -13.3%. In addition, the AC50 under setting [1] was 0.517 µM [falling, full curve]. As to `COc1ccccc1CN1CCN(C(=O)c2ccncc2)CC1`, the cell number change is -47.3%. Also, the AC50 under setting [2] was 0.116 µM [falling, full curve]. In addition, the AC50 under setting [1] is 0.731 µM [falling, full curve]. Turning to `COc1ccc(C2C(C#N)=C3NC(=O)c4c(sc5c4CCCCC5)N3C3=C2C(=O)CC(C)(C)C3)cc1` (configuration not stated), the cell number change is 7.87%. For the same compound, the AC50 under setting [1] is 29.1 µM [falling, single point].

Take `Cc1ccc(NC(=O)C2CCCN(S(=O)(=O)c3cnc[nH]3)C2)c(Br)c1` (configuration not stated): the AC50 under setting [1] is 16.4 µM [rising, single point]. In the case of `COc1ccc(S(=O)(=O)N(C)CC(=O)N2CCC(C)CC2)cc1Cl`, the cell number change came out at 0.219%. Further, the AC50 under setting [1] is 11.6 µM [rising, partial curve].

With `CCCCC(=O)N/N=C(\C)CC(=O)Nc1ccccc1Br`, the AC50 under setting [1] was 13 µM [rising, partial curve]. In the case of `O=C(O)c1c2c(nc3ccccc13)/C(=C/c1ccccc1[N+](=O)[O-])CCC2`, the cell number change was -1.59%. On to `NC(=O)N/N=C/c1ccccc1OCc1cccc2ccccc12`, for which the cell number change was determined as 51.6%. Besides, the AC50 under setting [2] was 29.1 µM [rising, single point]. The AC50 under setting [1] is 1.3 µM [falling, partial curve]. `CC(C)(OC(=O)c1ccc(F)cc1)c1cc2ccccc2c(=O)o1`: the cell number change was 6.92%. Under setting [1], the AC50 is 0.0058 µM [rising, full curve, poor fit]. Consider `O=c1nc(-c2ccccc2)c2cc(Cl)ccc2[nH]1`, for which the cell number change turned out to be 0.358%. With `CCNc1nc(NCC)n2c(SCC(=O)Nc3ccc(F)cc3[N+](=O)[O-])nnc2n1`, the cell number change was 26.8%. Besides, the AC50 under setting [1] is 0.58 µM [falling, single point]. On to `CC(C)OC(=O)c1c(N)n(CCCN2CCOCC2)c2nc3ccccc3nc12`, for which the cell number change worked out at 1.66%. As for `O=C(CSc1nc2ccccc2c(=O)n1Cc1ccco1)N1CCCCCC1`, the cell number change is -42.4%. Under setting [2], the AC50 was 16.4 µM [falling, single point]. Consider `O=C/C(=C\Nc1ccc(Br)cc1)c1nc2ccccc2o1`, for which the cell number change was found to be 3.7%. Besides, the AC50 under setting [1] is 0.00517 µM [rising, full curve, poor fit]. Consider `C=CCN(CC(O)c1cccc([N+](=O)[O-])c1)C(C)CCc1ccccc1` (configuration not stated), for which the cell number change was -10.1%. Turning to `O=C(c1ccco1)[C@@H]1[C@@H]2C(=O)N(c3ccccc3)C(=O)[C@@H]2C2c3ccccc3C=CN21` (some centres not stated), the cell number change was 19%. Further, the AC50 under setting [1] was 2.06 µM [rising, full curve, poor fit]. For `CC(C)Oc1cc2oc(=O)c3c(c2cc1Cl)CCC3`, under setting [1], the AC50 was 6.51 µM [falling, single point]. Turning to `CC(C)Oc1ccc2ccccc2c1C=O`, the cell number change was -24.2%. Take `CCCCCc1c(C)nc(Nc2nc(C)c3cc(OC)ccc3n2)[nH]c1=O`: the cell number change came to 28.5%. Further, under setting [1], the AC50 is 7.31 µM [rising, partial curve]. Take `O=C(COC(=O)c1ccc(Cl)nc1)Nc1ccc2c(c1)OCO2`: the cell number change was -10.2%. For the same compound, the AC50 under setting [2] was 6.51 µM [falling, single point]. As to `CC(=O)NCCC(=O)Nc1sc2c(c1-c1nc3ccccc3[nH]1)CCCC2`, the cell number change stood at 15.8%. In addition, under setting [1], the concentration at half-maximal activity (AC50) is 29.1 µM [rising, single point]. With `C=C(C)COc1ccc2c(C)c(CC(=O)N3C[C@H]4C[C@@H](C3)c3cccc(=O)n3C4)c(=O)oc2c1C`, the cell number change is -20.4%. For the same compound, the AC50 under setting [1] was 0.82 µM [rising, full curve, poor fit]. As for `CCSc1ccccc1-c1nc(-c2ccncc2)no1`, the cell number change was -35.7%. Under setting [2], the concentration at half-maximal activity (AC50) was 14.6 µM [falling, single point]. Moreover, the AC50 under setting [1] is 20.6 µM [falling, single point]. Consider `CCOc1ccc(S(=O)(=O)Nc2cnc3ccccc3c2)cc1`, for which the cell number change came to 11.3%. For the same compound, the concentration at half-maximal activity (AC50) under setting [1] was 29.1 µM [falling, single point]. Consider `O=C(CSc1nnc(CNC(=O)c2ccccc2F)o1)NC1CCCC1`, for which the cell number change was determined as 5.1%. As for `CCOc1ccc(NC(=S)NNC(=O)c2ccc(Br)cc2)cc1`, the cell number change was determined as 13.6%. In addition, the AC50 under setting [2] is 1.64 µM [rising, partial curve]. In the case of `Cc1cccc(/C(N)=N/OC(=O)CCC2CCCCC2)c1`, the cell number change is -4.23%. The AC50 under setting [1] was 6.51 µM [rising, single point]. `CS(=O)(=O)c1ccccc1C(=O)Nc1cccc(-c2nc3ccccc3o2)c1`: under setting [1], the AC50 is 7.31 µM [falling, partial curve].

Regarding `O=C1CSC(=O)N1CC(O)COc1ccc(Cl)cc1` (configuration not stated), the cell number change was 9.17%. Besides, the AC50 under setting [2] is 0.58 µM [falling, single point]. For the same compound, under setting [1], the AC50 is 0.092 µM [falling, single point]. Turning to `S=c1[nH]nc(Cc2ccccc2)n1Cc1ccco1`, the cell number change is 70.6%. Same read-out and setting: the result for `CCOc1cc(NC(=O)c2ccco2)c(OCC)cc1NC(=O)CCc1ccc(OC)cc1` reads 7.19%. With `Cc1nn(Cc2c(F)c(F)c(F)c(F)c2F)c(C)c1NC(=O)c1c([N+](=O)[O-])c(C)nn1C`, the AC50 reads like this: under setting [2], 1.46 µM [rising, partial curve]; under setting [1], 6.51 µM [rising, partial curve]. Take `Oc1ccccc1N1CCN(C(=S)NCCc2ccccc2)CC1`: the cell number change was determined as 23.2%. In addition, under setting [1], the AC50 was 25.9 µM [rising, single point].
